These results are taken from PubChem BioAssay AID493014 (National Center for Advancing Translational Sciences (NCATS), 2011).

The other results are listed elsewhere or left out. Further columns of the screen follow, without active or inactive calls. Most of these compounds were active or inconclusive in the main read-out, so they are no random draw. Words in brackets tell the shape of the fitted curve; partial curves, single points and poor fits give uncertain potencies.

The test is described as follows: qHTS Assay to Find Inhibitors of Chronic Active B-Cell Receptor Signaling. As to conditions: ABC-DLBCL IkBa-CBG/CBR reporter, luminescence ratio (green luciferase fused to IkBa over red control in TMD8 lymphoma cells), 4 h. The essentials: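 Concentration-response series (up to 46 uM) were applied to TMD8 dual-reporter cells for 4 h at 37C with doxycycline. Green/red ratio, after filter-overlap correction, defined %Activity; red signal alone was normalised to basal cells and zero luminescence.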
For orientation: Quantitative high-throughput screening tests each substance at several concentrations.

The mark [1] stands for this setting: measured here: CBR red luminescence, cell number.
Setting [2] is: measured here: IkBa-CBG green luminescence.

On to `CC(=O)Nc1cccc(NC(=O)C(=O)NCC(c2ccco2)N2CCc3ccccc32)c1` (configuration not stated), for which the AC50 (commonly the concentration giving half of the maximal activity seen) under setting [1] is 16.4 µM [falling, partial curve, poor fit].

As for `COC(=O)c1[nH]c2ccc(C)cc2c1NC(=O)CN1CCN(Cc2ccccc2)CC1`, the AC50 under setting [2] is 1.58 µM [falling, full curve, poor fit].

`CCOc1ccccc1NC(=O)Cn1c(=O)oc2ccccc21`: the AC50 under setting [1] was 3.55 µM [falling, single point].

Consider `O=C(NNC(=O)c1ccccc1F)c1ccco1`, for which, under setting [1], the AC50 is 1.41 µM [falling, full curve].

Regarding `CCN1CCCC1CNC(=O)c1ccc2c(c1)NC(=O)/C(=C\c1ccc(C)cc1)S2` (configuration not stated), the AC50 under setting [1] was 35.5 µM [falling, single point].

For the molecule `Cc1cc(Sc2nc(N(C)C)nc(N(C)C)n2)nc(Cl)n1`, the AC50 under setting [1] is 1.58 µM [rising, partial curve, poor fit].

Take `O=C(COC(=O)COc1ccc(Cl)cc1Br)NCCC1=CCCCC1`: the AC50 under setting [1] was 29.1 µM [rising, single point].

For `COc1ccc(S(=O)(=O)NCCN2CCOCC2)c2ccccc12`, the AC50 under setting [1] is 35.5 µM [rising, single point].

With `CC(=O)Oc1c(I)cc(I)cc1C(=O)Nc1ccc(Cl)cc1`, the AC50 under setting [1] is 3.16 µM [falling, full curve].

With `Cc1ccc(NC(=O)CC(C)N2CCCC2)cc1` (configuration not stated), the AC50 under setting [1] is 6.51 µM [rising, partial curve].

As to `CCNc1nc2c(c(=O)n(C)c(=O)n2C)n1Cc1ccc(F)cc1`, the AC50 is 3.98 µM [falling, partial curve, poor fit] under setting [1] and 4.47 µM [rising, full curve] under setting [2].

Regarding `Cc1c(CCC(=O)O)c(=O)oc2cc3oc4c(c3cc12)CCCC4`, the AC50 under setting [1] was 1.41 µM [rising, full curve, poor fit] and the AC50 under setting [2] was 2 µM [falling, full curve].

In the case of `Cc1ccccc1OCCCC(=O)Nc1ccc(Br)cc1`, the AC50 under setting [1] is 20.6 µM [rising, partial curve, poor fit].

For `COc1ccc(/C=N/NC(=O)c2ccc(CN3c4cccc5cccc(c45)S3(=O)=O)cc2)cc1`, under setting [1], the AC50 is 29.1 µM [rising, partial curve, poor fit].

`COc1ccc(-c2cc(C(=O)NCc3ccco3)no2)cc1OC`: the AC50 was 0.0058 µM [rising, full curve, poor fit] under setting [1] and 0.0058 µM [falling, full curve, poor fit] under setting [2].

Turning to `Clc1ccc2nc(-c3ccccc3)cn2c1`, the AC50 under setting [1] was 11.2 µM [falling, single point].

As to `COC(=O)Nc1nc2ccc(SC(C)C)cc2[nH]1`, under setting [2], the AC50 was 7.31 µM [falling, partial curve, poor fit].

Take `Cc1ccc(NS(=O)(=O)c2ccc3c(c2)n(C)c(=O)n3C)c(C)c1`: under setting [1], the AC50 is 5.62 µM [rising, single point].

Regarding `COc1cc2c(cc1OC)CN(CC(=O)Nc1ccc(C#N)cc1)CC2`, under setting [1], the AC50 was 7.31 µM [falling, single point].

Take `O=C(COc1cc(F)ccc1[N+](=O)[O-])Nc1ccc2c(c1)OCO2`: the AC50 under setting [1] was 29.1 µM [rising, partial curve, poor fit].

As for `COc1cc2ccccc2cc1C(=O)Nc1nc(C)c(C(C)=O)s1`, the AC50 under setting [1] is 3.55 µM [falling, full curve].

For `CCc1ccc(C(=O)Cn2ccsc2=N)cc1`, under setting [1], the AC50 was 0.355 µM [rising, full curve, poor fit].

Take `Cc1cc(/C=c2\sc3nc4ccccc4n3c2=O)c(C)n1-c1ccc(C(=O)O)cc1`: the AC50 under setting [2] was 1 µM [rising, full curve, poor fit].

In the case of `c1cc2ccc3ccc(-n4cnnn4)c4ccc(c1)c2c34`, under setting [1], the AC50 is 20.6 µM [rising, single point].

Consider `Cc1cccc(-n2ccnc2CN2CCN(C3CCCC3)C(CCO)C2)c1` (configuration not stated), for which the AC50 under setting [1] is 31.6 µM [rising, single point].

`O=C(COC(=O)c1cc(=O)[nH]c2ccccc12)NC1CCCCCCC1`: under setting [1], the AC50 was 35.5 µM [rising, single point].

On to `COc1ccc(C)cc1NC(=O)CSc1nc(=O)n(Cc2ccco2)c2c1CCC2`, for which the AC50 under setting [1] is 15.8 µM [falling, single point].

On to `COc1ccccc1NCC(=O)NC(=O)NC1CCCCC1`, for which the AC50 under setting [1] was 7.31 µM [rising, partial curve, poor fit].

Take `CC1=CC(C)(C)Nc2ccc(OC(=O)C(C)N3C(=O)c4ccccc4C3=O)cc21` (configuration not stated): the AC50 under setting [1] was 11.6 µM [falling, partial curve, poor fit].

With `Cc1cc(C(=O)Nc2ccc(N3CCOCC3)c3nonc23)ccc1[N+](=O)[O-]`, under setting [1], the AC50 was 1 µM [rising, full curve].

As to `O=C(Cn1cnc2c(nnn2Cc2ccccc2F)c1=O)NCC1CCCO1` (configuration not stated), the AC50 under setting [1] is 29.1 µM [rising, single point].

For the molecule `COc1ccccc1C1=Nn2c(COc3ccccc3)nnc2SC1`, the AC50 under setting [1] is 12.6 µM [falling, single point].

In the case of `CC1=C/C(=N\NC(=S)NCCc2ccccc2)CC(C)(C)C1`, the AC50 under setting [1] was 35.5 µM [rising, partial curve, poor fit].

As to `COc1ccc(N=c2oc3ccccc3cc2C(=O)Nc2ccccn2)cc1OC`, the AC50 under setting [1] was 25.1 µM [falling, single point].

As for `Cc1nn(-c2ccccc2)c(C)c1C(=O)OCC(=O)NC12CC3CC(CC(C3)C1)C2`, the AC50 under setting [1] is 35.5 µM [falling, single point].

For the molecule `COc1ccc(NC(=O)CSc2ccc(-c3cccs3)nn2)c(OC)c1`, under setting [1], the AC50 is 6.31 µM [falling, single point].

With `Cc1c(C(=O)OCc2ccccc2)[nH]c2c1C(=O)CC(c1ccco1)C2` (configuration not stated), the AC50 runs as follows: under setting [1], 5.8 µM [rising, full curve]; under setting [2], 6.51 µM [falling, partial curve, poor fit].

`Cc1ccc(NC(=O)c2cc(S(=O)(=O)N3CCOCC3)cs2)cc1`: under setting [1], the AC50 is 10 µM [falling, partial curve, poor fit].

For the molecule `Cc1nn(C(C)c2n[nH]c(=S)n2-c2cccc(Cl)c2)c(C)c1[N+](=O)[O-]` (configuration not stated), the AC50 under setting [1] is 4.61 µM [rising, partial curve, poor fit].

In the case of `COc1ccc([C@]23Cc4ccccc4C(O2)C2=C(CC(C)(C)CC2=O)O3)cc1`, the AC50 under setting [1] is 5.01 µM [rising, partial curve, poor fit].

On to `CN1C(=O)c2ccccc2Sc2ccc(NC(=O)Cc3ccc(Cl)cc3)cc21`, for which the AC50 was 22.4 µM [falling, partial curve, poor fit] under setting [1] and 10 µM [rising, partial curve, poor fit] under setting [2].

With `O=C(Oc1ccc(F)cc1C(=O)/C=C/c1cccs1)c1cccc([N+](=O)[O-])c1`, the AC50 by setting is: under setting [1], 7.94 µM [rising, partial curve, poor fit]; under setting [2], 8.91 µM [falling, partial curve].

Turning to `COc1ccc(-c2csc(/N=C/N(C)C)n2)cc1OC`, the AC50 under setting [1] is 28.2 µM [rising, single point].

Consider `O=C(Nc1ccccc1)OC1CCC2CC1CCC2OC(=O)Nc1ccccc1` (configuration not stated), for which, under setting [1], the AC50 is 0.461 µM [rising, full curve, poor fit].

Take `Cc1ccccc1C1c2[nH]c3ccccc3c2C[C@H]2C(=O)N(c3ccccc3C(=O)NCCN3CCOCC3)C(=O)N12` (some centres not stated): under setting [1], the AC50 is 15.8 µM [falling, single point].

As for `CCCCc1[nH]nc2c1C1(C(=O)N(CC)c3ccccc31)C(C#N)=C(N)O2` (configuration not stated), the AC50 under setting [1] was 32.6 µM [falling, single point].

As to `CCc1ccc(-c2nc(CS(=O)CC(=O)O)c(C)o2)cc1` (configuration not stated), the half-maximal activity concentration (AC50) under setting [1] is 10 µM [falling, partial curve].

For `O=C(O)c1cccc(NS(=O)(=O)c2ccc(NC(=O)c3ccco3)cc2)c1`, the half-maximal activity concentration (AC50) under setting [1] was 35.5 µM [falling, single point].

For `CN1CCN(c2nc(NCCOC34CC5CC(CC(C5)C3)C4)nc(OCC(F)(F)F)n2)CC1`, the AC50 under setting [1] is 7.31 µM [falling, partial curve, poor fit].

As to `CCCCn1c(N)c(N(CC(C)C)C(=O)CN2C(=O)NC3(CC(C)CC(C)(C)C3)C2=O)c(=O)[nH]c1=O` (configuration not stated), the AC50 under setting [1] is 0.517 µM [rising, full curve, poor fit].

Consider `Cc1ccc(-c2cc(C(=O)N/N=C/c3cccnc3)n[nH]2)o1`, for which the AC50 by setting is: under setting [1], 9.2 µM [falling, partial curve, poor fit]; under setting [2], 23.1 µM [rising, partial curve, poor fit].

For the molecule `CC(=O)Nc1ccc(S(=O)(=O)/N=C2\SCCN2S(=O)(=O)c2ccc(NC(C)=O)cc2)cc1`, the AC50 under setting [1] is 5.62 µM [rising, single point].

Turning to `C/C(=N/NC(=O)c1ccccc1)c1ccc(NC(=O)C(F)(F)F)cc1`, the AC50 under setting [1] is 10 µM [falling, partial curve, poor fit].

For the molecule `Cc1ccc(NC(=S)NNC(=O)c2nn(C)cc2Cl)cc1`, the AC50 under setting [1] is 35.5 µM [falling, single point].

On to `Cc1ccc2nc(NC(=O)c3ccco3)sc2c1`, for which, under setting [1], the AC50 is 2.91 µM [falling, full curve].

Take `CC1=NN(Cc2ccccc2)C(=O)C1C(c1ccc(Cl)cc1)C(C#N)C#N` (configuration not stated): the AC50 under setting [2] was 18.4 µM [falling, partial curve, poor fit].

As for `COC(=O)Cc1c(C)nc2nc(NCc3ccccc3OC)[nH]n2c1=O`, the AC50 under setting [1] is 3.98 µM [falling, partial curve, poor fit].

Consider `O=C(c1ccco1)N1CCN(C/C=C/c2ccccc2)CC1`, for which, under setting [1], the AC50 is 10 µM [rising, partial curve, poor fit].

In the case of `O=C1ON=C(c2ccc(Cl)cc2)/C1=C/c1ccc(O)cc1`, the AC50 under setting [1] was 8.91 µM [falling, partial curve, poor fit].

Regarding `Cc1ccccc1OCC(=O)Nn1c(COc2ccccc2)nc2ccccc2c1=O`, the AC50 under setting [1] was 10.3 µM [falling, partial curve, poor fit].
